Measured values taken from paper PMC11379886, “Insights into phosphoethanolamine cellulose synthesis and secretion across the Gram-negative cell envelope” (Nature Communications, 2024).
Results are given in words; binding and its absence hold for the method and conditions named. For some assays here: Binding seen in cells or lysates may run through a third protein. Some results given as binding are weak or reduced against the parent protein; the word gives no strength. For some assays here: Tags and fused reporters may be left off the sequences shown.

Key:
[1] = target: T1, Escherichia coli BcsG with C-terminal dodeca-histidine tag (Escherichia coli) (UniProt P37659); test: pull-down + SEC; Strep-tagged BcsA NTD and His-tagged BcsG co-expressed in Ec C43 (DE3); membranes solubilised in LMNG/DMNG/CHS; tandem affinity purification on Ni-NTA then Strep-Tactin, then Superose 6 SEC; identities confirmed by Western blotting and tandem mass spectrometry
T1 sequence: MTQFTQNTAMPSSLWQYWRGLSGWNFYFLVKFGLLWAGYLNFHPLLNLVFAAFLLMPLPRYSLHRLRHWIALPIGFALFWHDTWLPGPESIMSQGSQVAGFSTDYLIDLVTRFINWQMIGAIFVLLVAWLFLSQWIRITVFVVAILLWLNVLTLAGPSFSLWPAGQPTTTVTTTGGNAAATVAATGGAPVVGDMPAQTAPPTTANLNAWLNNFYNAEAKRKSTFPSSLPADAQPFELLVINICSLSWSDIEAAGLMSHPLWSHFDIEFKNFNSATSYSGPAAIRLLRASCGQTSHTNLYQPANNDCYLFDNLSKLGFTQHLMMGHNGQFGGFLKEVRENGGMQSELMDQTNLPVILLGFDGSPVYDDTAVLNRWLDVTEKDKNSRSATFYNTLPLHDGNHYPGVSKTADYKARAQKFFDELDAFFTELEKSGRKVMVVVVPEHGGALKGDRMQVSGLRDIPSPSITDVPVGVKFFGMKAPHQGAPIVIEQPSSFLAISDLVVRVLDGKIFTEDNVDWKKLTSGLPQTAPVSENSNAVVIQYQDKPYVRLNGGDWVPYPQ

[2] = target: T2, full-length Escherichia coli BcsC (Escherichia coli) (UniProt P37650); test: cryo-EM structure; BcsC incubated with purified BcsZ at a molar 1:1.5; single particle analysis, about 2.7 Å for BcsZ; both purified
T2 sequence: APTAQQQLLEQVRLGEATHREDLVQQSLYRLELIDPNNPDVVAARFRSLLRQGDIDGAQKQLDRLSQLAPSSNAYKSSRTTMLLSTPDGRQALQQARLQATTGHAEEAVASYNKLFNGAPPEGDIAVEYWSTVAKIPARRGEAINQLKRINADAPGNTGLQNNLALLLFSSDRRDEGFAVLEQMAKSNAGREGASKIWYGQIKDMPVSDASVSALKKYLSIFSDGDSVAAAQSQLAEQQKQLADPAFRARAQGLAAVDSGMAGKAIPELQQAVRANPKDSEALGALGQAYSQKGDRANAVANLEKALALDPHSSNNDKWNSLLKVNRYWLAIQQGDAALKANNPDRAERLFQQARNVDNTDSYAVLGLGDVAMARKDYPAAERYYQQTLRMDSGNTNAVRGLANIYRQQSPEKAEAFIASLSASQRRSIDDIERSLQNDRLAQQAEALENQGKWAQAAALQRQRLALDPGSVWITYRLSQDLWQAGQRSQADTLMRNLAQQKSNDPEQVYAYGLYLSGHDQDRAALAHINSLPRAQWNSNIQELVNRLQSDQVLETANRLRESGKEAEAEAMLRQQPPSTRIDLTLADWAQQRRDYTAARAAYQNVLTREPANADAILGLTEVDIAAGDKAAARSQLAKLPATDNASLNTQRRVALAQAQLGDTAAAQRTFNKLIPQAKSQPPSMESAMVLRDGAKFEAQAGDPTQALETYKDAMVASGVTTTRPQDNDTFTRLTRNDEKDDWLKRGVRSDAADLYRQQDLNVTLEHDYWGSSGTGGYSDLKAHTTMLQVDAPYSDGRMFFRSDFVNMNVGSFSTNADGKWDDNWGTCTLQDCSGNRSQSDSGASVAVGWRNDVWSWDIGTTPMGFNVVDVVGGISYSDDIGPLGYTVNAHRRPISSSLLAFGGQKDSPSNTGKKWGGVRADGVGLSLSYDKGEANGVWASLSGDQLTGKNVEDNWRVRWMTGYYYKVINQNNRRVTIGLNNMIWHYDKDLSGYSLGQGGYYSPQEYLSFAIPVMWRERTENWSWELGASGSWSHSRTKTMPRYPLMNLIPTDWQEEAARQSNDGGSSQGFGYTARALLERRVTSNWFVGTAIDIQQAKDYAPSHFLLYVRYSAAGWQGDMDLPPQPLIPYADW

B1: N-terminal domain of Escherichia coli BcsA (first 94 residues), Strep-tagged (domain or fragment, UniProt P37653 1-94)
chain: MSILTRWLLIPPVNARLIGRYRDYRRHGASAFSATLGCFWMILAWIFIPLEHPRWQRIRAEHKNLYPHINASRPRPLDPVRYLIQTCWLLIGAS
binding [1]: binds

B2: Escherichia coli cellulase BcsZ (enzyme)
chain: ACTWPAWEQFKKDYISQEGRVIDPSDARKITTSEGQSYGMFSALAANDRAAFDNILDWTQNNLAQGSLKERLPAWLWGKKENSKWEVLDSNSASDGDVWMAWSLLEAGRLWKEQRYTDIGSALLKRIAREEVVTVPGLGSMLLPGKVGFAEDNSWRFNPSYLPPTLAQYFTRFGAPWTTLRETNQRLLLETAPKGFSPDWVRYEKDKGWQLKAEKTLISSYDAIRVYMWVGMMPDSDPQKARMLNRFKPMATFTEKNGYPPEKVDVATGKAQGKGPVGFSAAMLPFLQNRDAQAVQRQRVADNFPGSDAYYNYVLTLFGQGWDQHRFRFSTKGELLPDWGQECANSH
notes: End of the His tag read from the plasmid's name; also called Ec BcsZ
binding [2]: no binding (tested: molar 1:1.5)
